In assay [1] the target is MRPP3_(Δ206) (aa 207–583) (human) (UniProt O15091). The assay is described as follows: SEC-SAXS; KW403-4F column in line with SAXS, 4.5 mg/ml; 50 mM sodium phosphate pH 7.4, 300 mM NaCl, 5% glycerol, 1% sucrose, 0.5 mM TCEP (for MRPP1, MRPP2 and MRPP1–MRPP2; buffer for MRPP3 alone not told); no tRNA; both purified.
For assay [2], the target named is MRPP3_(ΔMTS) (mature mitochondrial RNase P protein 3, aa 51–583) (human) (UniProt O15091). The experiment in a line: SEC; analytical SEC of single proteins, Superdex S200 10/300 GL (or KW403-4F), apparent mass from standards of known Mr, n = 3; both purified. On the technique in general: In gel filtration, larger molecules generally elute earlier.
For assay [3] the target is unchanged. The assay is described as follows: SEC-SAXS; KW403-4F column in line with SAXS, 4.5 mg/ml; 50 mM sodium phosphate pH 7.4, 300 mM NaCl, 5% glycerol, 1% sucrose, 0.5 mM TCEP (for MRPP1, MRPP2 and MRPP1–MRPP2; buffer for MRPP3 alone not told); no tRNA; both purified.
Assay [4] deals with T1, MRPP2 (HSD17B10), expressed alone, tag removed (human) (UniProt Q99714).
T1 sequence: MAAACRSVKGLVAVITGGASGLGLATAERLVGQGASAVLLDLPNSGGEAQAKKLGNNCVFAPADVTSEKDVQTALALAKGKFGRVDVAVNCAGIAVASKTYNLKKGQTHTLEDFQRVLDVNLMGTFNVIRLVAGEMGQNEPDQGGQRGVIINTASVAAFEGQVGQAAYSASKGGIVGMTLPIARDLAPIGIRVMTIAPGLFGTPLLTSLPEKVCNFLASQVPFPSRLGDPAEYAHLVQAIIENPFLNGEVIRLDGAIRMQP
The experiment in a line: SEC; analytical SEC of preincubated protein mixtures with MRPP3, Superdex S200, without pre-(mt)tRNA; both purified.

For assay [5], the target named is MRPP1_(MT+C(Δ194)) (MT domain with C extension, aa 195–403), expressed alone (human) (UniProt Q7L0Y3). The assay is described as follows: SEC; analytical SEC of single proteins, Superdex S200 10/300 GL (or KW403-4F), apparent mass from standards of known Mr, n = 3; both purified.
The target in assay [6] is T2, MRPP1_(ΔMTS)–MRPP2 complex (human) (UniProt Q7L0Y3+Q99714).
T2 sequence 1: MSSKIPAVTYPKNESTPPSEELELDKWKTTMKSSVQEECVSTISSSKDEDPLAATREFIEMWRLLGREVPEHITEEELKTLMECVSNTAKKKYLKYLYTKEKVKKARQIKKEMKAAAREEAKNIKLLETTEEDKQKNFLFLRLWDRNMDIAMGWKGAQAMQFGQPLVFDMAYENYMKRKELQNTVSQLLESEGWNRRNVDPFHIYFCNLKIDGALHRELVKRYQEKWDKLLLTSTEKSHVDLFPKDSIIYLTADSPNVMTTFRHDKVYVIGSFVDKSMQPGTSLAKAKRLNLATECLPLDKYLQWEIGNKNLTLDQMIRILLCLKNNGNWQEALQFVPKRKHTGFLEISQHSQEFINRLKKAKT
T2 sequence 2: T1 sequence
The assay is described as follows: SEC; analytical SEC of protein mixtures incubated with excess pre-(mt)tRNA^Ile, Superdex S200; fractions on SDS-PAGE and urea-PAGE; both purified.

Results are given in words; binding and its absence hold for the method and conditions named. For part of these data: Tags and fused reporters may be left off the sequences shown.

B1: MRPP3_(Δ206) (aa 207–583) (domain or fragment, UniProt O15091 207-583)
chain: TLEPRGYSLLIRGLIHSDRWREALLLLEDIKKVITPSKKNYNDCIQGALLHQDVNTAWNLYQELLGHDIVPMLETLKAFFDFGKDIKDDNYSNKLLDILSYLRNNQLYPGESFAHSIKTWFESVPGKQWKGQFTTVRKSGQCSGCGKTIESIQLSPEEYECLKGKIMRDVIDGGDQYRKTTPQELKRFENFIKSRPPFDVVIDGLNVAKMFPKVRESQLLLNVVSQLAKRNLRLLVLGRKHMLRRSSQWSRDEMEEVQKQASCFFADDISEDDPFLLYATLHSGNHCRFITRDLMRDHKACLPDAKTQRLFFKWQQGHQLAIVNRFPGSKLTFQRILSYDTVVQTTGDSWHIPYDEDLVERCSCEVPTKWLCLHQKT
On to B1, for which the binding result in assay [1] is “no binding”.

B2: MRPP3_(ΔMTS) (mature mitochondrial RNase P protein 3, aa 51–583) (protein, UniProt O15091 51-583)
chain: MSPQNTKATNLIAKARYLRKDEGSNKQVYSVPHFFLAGAAKERSQMNSQTEDHALAPVRNTIQLPTQPLNSEEWDKLKEDLKENTGKTSFESWIISQMAGCHSSIDVAKSLLAWVAAKNNGIVSYDLLVKYLYLCVFHMQTSEVIDVFEIMKARYKTLEPRGYSLLIRGLIHSDRWREALLLLEDIKKVITPSKKNYNDCIQGALLHQDVNTAWNLYQELLGHDIVPMLETLKAFFDFGKDIKDDNYSNKLLDILSYLRNNQLYPGESFAHSIKTWFESVPGKQWKGQFTTVRKSGQCSGCGKTIESIQLSPEEYECLKGKIMRDVIDGGDQYRKTTPQELKRFENFIKSRPPFDVVIDGLNVAKMFPKVRESQLLLNVVSQLAKRNLRLLVLGRKHMLRRSSQWSRDEMEEVQKQASCFFADDISEDDPFLLYATLHSGNHCRFITRDLMRDHKACLPDAKTQRLFFKWQQGHQLAIVNRFPGSKLTFQRILSYDTVVQTTGDSWHIPYDEDLVERCSCEVPTKWLCLHQKT
Consider B2, for which the binding entry in assay [2], in assay [3] and in assay [4] was “no binding” throughout.

B3: MRPP1_(MT+C(Δ194)) (MT domain with C extension, aa 195–403), expressed alone (domain or fragment, UniProt Q7L0Y3 195-403)
chain: GAQAMQFGQPLVFDMAYENYMKRKELQNTVSQLLESEGWNRRNVDPFHIYFCNLKIDGALHRELVKRYQEKWDKLLLTSTEKSHVDLFPKDSIIYLTADSPNVMTTFRHDKVYVIGSFVDKSMQPGTSLAKAKRLNLATECLPLDKYLQWEIGNKNLTLDQMIRILLCLKNNGNWQEALQFVPKRKHTGFLEISQHSQEFINRLKKAKT
As for B3, in assay [5], the binding entry is given as “no binding”.

B4: MRPP3C (C-terminal region of MRPP3, aa 274–583) (domain or fragment, UniProt O15091 274-583)
chain: DIVPMLETLKAFFDFGKDIKDDNYSNKLLDILSYLRNNQLYPGESFAHSIKTWFESVPGKQWKGQFTTVRKSGQCSGCGKTIESIQLSPEEYECLKGKIMRDVIDGGDQYRKTTPQELKRFENFIKSRPPFDVVIDGLNVAKMFPKVRESQLLLNVVSQLAKRNLRLLVLGRKHMLRRSSQWSRDEMEEVQKQASCFFADDISEDDPFLLYATLHSGNHCRFITRDLMRDHKACLPDAKTQRLFFKWQQGHQLAIVNRFPGSKLTFQRILSYDTVVQTTGDSWHIPYDEDLVERCSCEVPTKWLCLHQKT
Regarding B4, the binding result in assay [6] is reported as “no binding”.

The values are drawn from paper PMC6102140, “Structural insight into the human mitochondrial tRNA purine N1-methyltransferase and ribonuclease P complexes” (The Journal of Biological Chemistry, 2018).
